Measurements from US10220026B2, “Micelle containing epirubicin-complexed block copolymer and anti-cancer agent, and pharmaceutical composition containing said micelle applicable to treatment of cancer, resistant cancer or metastatic cancer” (priority 2014, dated 2019).

Tests used:
[1] = system: Epirubicin-resistant breast cancer cells (MCF-7); test: Elimination of epirubicin and eFluxx-ID-GFP by resistant strain (confocal microscopy), breast cancer; type: cell-based, human; details: epirubicin-resistant strain
Method: (§1) Epirubicin-resistant breast cancer cells (MCF-7) and cisplatin-resistant lung cancer cells (H460) were respectively disseminated in each of the wells of an 8-well Tek chambered cover glass (Thermo Fisher Scientific K.K.) at 1×10^4 cells/well followed by culturing overnight. The medium was then replaced with 200 μl of RPMI1640 (phenol red-free) containing 0.1 μg/ml of Hoechst 33342 and 10% FBS.
(§2) 200 μl of eFluxx-ID-GFP solution were added 1 hour after addition of drug. The medium was replaced with RPMI1640 medium containing 10% FBS 30 minutes after addition followed by observation with an LSM780 confocal microscope and taking photographs thereof (FIGS. 12B and 13B). Cells subjected to the procedure prior to acquiring resistance were used as a control and epirubicin was added for the drug. In this experiment, fluorescence-labeled epirubicin (manufacturer) was used for the epirubicin.

[2] = system: cisplatin-resistant lung cancer cells (H460); test: Elimination of epirubicin and eFluxx-ID-GFP by resistant strain (confocal microscopy), lung cancer; type: cell-based, human
Method: as §1, §2

CN[C@@H]1C[C@H]2O[C@@](C)([C@@H]1OC)n1c3ccccc3c3c4c(c5c6ccccc6n2c5c31)C(=O)NC4 [staurosporine]
inhibition of ABC transporter [1]: inhibited | inhibition of ABC transporter [2]: inhibited
